# Test results taken from the supplement of paper PMC5355238.
# Structures can show the parent of a compound that is named as a salt. Some of the results follow. Most entries show no effect beyond the scatter of the controls.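 Reh is a human leukemia cell line; the read-out is the median γH2AX antibody signal in S-phase cells by flow cytometry, with the score counting standard deviations from the median difference of each paired set of plates. Scores above 2.5 were called candidate hits, while scores below -2 mark compounds that lowered the MK1775-induced damage.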
# Test system: Reh
# Experiment: Z' of S-phase gammaH2AX difference (drug + MK1775 minus drug alone) (Z-score); higher = stronger synergistic S-phase DNA damage with MK1775
# Conditions: MK1775 concentration 400 nM; first compound 10 µM; 4 h
row,Compound,Z' of S-phase gammaH2AX difference (Z-score)
1,CC1=C(/C=C/C(C)=C/C=C/C(C)=C/C=C/C=C(C)/C=C/C=C(C)/C=C/C2=C(C)C(=O)[C@@H](O)CC2(C)C)C(C)(C)C[C@H](O)C1=O [Astaxanthin] + C=CCn1c(=O)c2cnc(Nc3ccc(N4CCN(C)CC4)cc3)nc2n1-c1cccc(C(C)(C)O)n1 [MK1775],inactive: 0.414
2,CC1=C(/C=C/C(C)=C/C=C/C(C)=C/C(=O)O)C(C)(C)CCC1 [Retinoic acid] + C=CCn1c(=O)c2cnc(Nc3ccc(N4CCN(C)CC4)cc3)nc2n1-c1cccc(C(C)(C)O)n1 [MK1775],inactive: 0.257
3,"CC(O)C(O)[C@H]1CNc2nc(N)[nH]c(=O)c2N1 (stereo partly drawn) [(6R)-5,6,7,8-Tetrahydro-L-biopterin hydrochloride] + C=CCn1c(=O)c2cnc(Nc3ccc(N4CCN(C)CC4)cc3)nc2n1-c1cccc(C(C)(C)O)n1 [MK1775]",inactive: -0.0466
4,NC(=O)C1=CN(C2OC(COP(=O)(O)OP(=O)(O)OC[C@H]3O[C@@H](n4cnc5c(N)ncnc54)C(OP(=O)(O)O)[C@H]3O)C(O)C2O)C=CC1 (stereo partly drawn) [NADPH tetrasodium] + C=CCn1c(=O)c2cnc(Nc3ccc(N4CCN(C)CC4)cc3)nc2n1-c1cccc(C(C)(C)O)n1 [MK1775],inactive: -0.218
5,"NC(=O)CNCCC(c1ccccc1)c1ccccc1 [N-(3,3-Diphenylpropyl)glycinamide] + C=CCn1c(=O)c2cnc(Nc3ccc(N4CCN(C)CC4)cc3)nc2n1-c1cccc(C(C)(C)O)n1 [MK1775]",inactive: 0.255
6,CC1=C(C(=O)O)N2C(=O)[C@@H](NC(=O)[C@H](N)C3=CCC=CC3)[C@H]2SC1 [Cephradine] + C=CCn1c(=O)c2cnc(Nc3ccc(N4CCN(C)CC4)cc3)nc2n1-c1cccc(C(C)(C)O)n1 [MK1775],inactive: 0.0935
7,O=C(O)c1ccc(-c2c[nH]c3ncc(-c4ccccc4)cc23)cc1C1CCCC1 + C=CCn1c(=O)c2cnc(Nc3ccc(N4CCN(C)CC4)cc3)nc2n1-c1cccc(C(C)(C)O)n1 [MK1775],inactive: -0.926
8,CN1CCc2cc(Cl)c(O)cc2[C@@H](c2ccccc2)C1 + C=CCn1c(=O)c2cnc(Nc3ccc(N4CCN(C)CC4)cc3)nc2n1-c1cccc(C(C)(C)O)n1 [MK1775],inactive: -0.192
9,Nc1ccc(N2C(=O)c3ccccc3C2=O)c(Cl)c1 [N-(4-Amino-2-chlorophenyl)phthalimide] + C=CCn1c(=O)c2cnc(Nc3ccc(N4CCN(C)CC4)cc3)nc2n1-c1cccc(C(C)(C)O)n1 [MK1775],inactive: 0.0367
10,O=C(O)C1CCCN(CCC=C(c2ccccc2)c2ccccc2)C1 (stereo not drawn) + C=CCn1c(=O)c2cnc(Nc3ccc(N4CCN(C)CC4)cc3)nc2n1-c1cccc(C(C)(C)O)n1 [MK1775],inactive: 0.483
11,CC(=O)O[C@]1(C(C)=O)CC[C@H]2[C@@H]3C=C(Cl)C4=CC(=O)[C@@H]5C[C@@H]5[C@]4(C)[C@H]3CC[C@@]21C [Cyproterone acetate] + C=CCn1c(=O)c2cnc(Nc3ccc(N4CCN(C)CC4)cc3)nc2n1-c1cccc(C(C)(C)O)n1 [MK1775],inactive: -0.0935
12,N[C@@H]1CONC1=O [D-Cycloserine] + C=CCn1c(=O)c2cnc(Nc3ccc(N4CCN(C)CC4)cc3)nc2n1-c1cccc(C(C)(C)O)n1 [MK1775],inactive: 0.0568
13,OCC1OC(n2cnc3c(NC4CCCCC4)ncnc32)C(O)C1O (stereo not drawn) [N6-Cyclohexyladenosine] + C=CCn1c(=O)c2cnc(Nc3ccc(N4CCN(C)CC4)cc3)nc2n1-c1cccc(C(C)(C)O)n1 [MK1775],inactive: 0.458
14,N[C@@H](Cc1c[nH]c2ccc(O)cc12)C(=O)O [5-Hydroxy-L-tryptophan] + C=CCn1c(=O)c2cnc(Nc3ccc(N4CCN(C)CC4)cc3)nc2n1-c1cccc(C(C)(C)O)n1 [MK1775],inactive: -0.872
15,CC(C)n1nc(-c2ccc3oc(N)nc3c2)c2c(N)ncnc21 + C=CCn1c(=O)c2cnc(Nc3ccc(N4CCN(C)CC4)cc3)nc2n1-c1cccc(C(C)(C)O)n1 [MK1775],inactive: -0.832
16,Clc1ccc(Cn2c(CN3CCCC3)nc3ccccc32)cc1 [Clemizole hydrochloride] + C=CCn1c(=O)c2cnc(Nc3ccc(N4CCN(C)CC4)cc3)nc2n1-c1cccc(C(C)(C)O)n1 [MK1775],inactive: 0.962
17,O=C(O)/C=C/c1ccc(O)c(O)c1 [Caffeic Acid] + C=CCn1c(=O)c2cnc(Nc3ccc(N4CCN(C)CC4)cc3)nc2n1-c1cccc(C(C)(C)O)n1 [MK1775],inactive: -0.651
18,CCCCc1nc2cc(/C=C/C(=O)NO)ccc2n1CCN(CC)CC [SB939 (Pracinostat)] + C=CCn1c(=O)c2cnc(Nc3ccc(N4CCN(C)CC4)cc3)nc2n1-c1cccc(C(C)(C)O)n1 [MK1775],inactive: -0.0614
19,CCCn1c(=O)[nH]c(=O)c2[nH]cnc21 [3-n-Propylxanthine] + C=CCn1c(=O)c2cnc(Nc3ccc(N4CCN(C)CC4)cc3)nc2n1-c1cccc(C(C)(C)O)n1 [MK1775],inactive: -1.43
20,OC[C@H]1O[C@@H](n2cnc3c(NC4CCCC4)ncnc32)[C@H](O)[C@@H]1O [N6-Cyclopentyladenosine] + C=CCn1c(=O)c2cnc(Nc3ccc(N4CCN(C)CC4)cc3)nc2n1-c1cccc(C(C)(C)O)n1 [MK1775],inactive: -0.237
21,C[N+](C)(C)CC=O [Betaine aldehyde chloride] + C=CCn1c(=O)c2cnc(Nc3ccc(N4CCN(C)CC4)cc3)nc2n1-c1cccc(C(C)(C)O)n1 [MK1775],inactive: 0.0501
22,"Cn1c(=O)[nH]c2ncn(C)c2c1=O [1,7-Dimethylxanthine] + C=CCn1c(=O)c2cnc(Nc3ccc(N4CCN(C)CC4)cc3)nc2n1-c1cccc(C(C)(C)O)n1 [MK1775]",inactive: 0.134
23,C1COC(NC(C2CC2)C2CC2)=N1 [Rilmenidine hemifumarate] + C=CCn1c(=O)c2cnc(Nc3ccc(N4CCN(C)CC4)cc3)nc2n1-c1cccc(C(C)(C)O)n1 [MK1775],inactive: 0.692

# A stretch from further up:
row,Compound,Z' of S-phase gammaH2AX difference (Z-score)
13,OCC1OC(n2cnc3c(NC4CCCCC4)ncnc32)C(O)C1O (stereo not drawn) [N6-Cyclohexyladenosine] + C=CCn1c(=O)c2cnc(Nc3ccc(N4CCN(C)CC4)cc3)nc2n1-c1cccc(C(C)(C)O)n1 [MK1775],inactive: 0.458
14,N[C@@H](Cc1c[nH]c2ccc(O)cc12)C(=O)O [5-Hydroxy-L-tryptophan] + C=CCn1c(=O)c2cnc(Nc3ccc(N4CCN(C)CC4)cc3)nc2n1-c1cccc(C(C)(C)O)n1 [MK1775],inactive: -0.872
